In publication doi:10.1101/2021.11.02.466889:

Biological target: T1, ScCda2 (yeast two-hybrid fusion) (Saccharomyces cerevisiae) (UniProt Q06703)
T1 sequence: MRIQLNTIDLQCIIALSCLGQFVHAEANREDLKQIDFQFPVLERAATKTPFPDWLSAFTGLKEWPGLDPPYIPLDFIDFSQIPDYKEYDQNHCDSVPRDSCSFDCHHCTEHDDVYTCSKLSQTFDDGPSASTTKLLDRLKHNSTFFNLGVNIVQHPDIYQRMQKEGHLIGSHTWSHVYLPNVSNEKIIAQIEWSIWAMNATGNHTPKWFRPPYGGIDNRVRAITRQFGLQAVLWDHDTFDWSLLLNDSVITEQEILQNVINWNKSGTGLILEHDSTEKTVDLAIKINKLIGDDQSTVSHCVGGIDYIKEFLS
Assay: two-hybrid

binding: binds
Substance: AD-AFP1 (maize)

No constants are given. Whether binding was seen depends on the method and setting. Binding can be weak; no strength is given. Sequences can lack the tags named with a protein.
